The text below walks through data of the supplement of paper PMC6411743.

This assay addresses T1, A0A087WW65|O75027 and related entries (UniProt O75027).
T1 sequence (whole entry): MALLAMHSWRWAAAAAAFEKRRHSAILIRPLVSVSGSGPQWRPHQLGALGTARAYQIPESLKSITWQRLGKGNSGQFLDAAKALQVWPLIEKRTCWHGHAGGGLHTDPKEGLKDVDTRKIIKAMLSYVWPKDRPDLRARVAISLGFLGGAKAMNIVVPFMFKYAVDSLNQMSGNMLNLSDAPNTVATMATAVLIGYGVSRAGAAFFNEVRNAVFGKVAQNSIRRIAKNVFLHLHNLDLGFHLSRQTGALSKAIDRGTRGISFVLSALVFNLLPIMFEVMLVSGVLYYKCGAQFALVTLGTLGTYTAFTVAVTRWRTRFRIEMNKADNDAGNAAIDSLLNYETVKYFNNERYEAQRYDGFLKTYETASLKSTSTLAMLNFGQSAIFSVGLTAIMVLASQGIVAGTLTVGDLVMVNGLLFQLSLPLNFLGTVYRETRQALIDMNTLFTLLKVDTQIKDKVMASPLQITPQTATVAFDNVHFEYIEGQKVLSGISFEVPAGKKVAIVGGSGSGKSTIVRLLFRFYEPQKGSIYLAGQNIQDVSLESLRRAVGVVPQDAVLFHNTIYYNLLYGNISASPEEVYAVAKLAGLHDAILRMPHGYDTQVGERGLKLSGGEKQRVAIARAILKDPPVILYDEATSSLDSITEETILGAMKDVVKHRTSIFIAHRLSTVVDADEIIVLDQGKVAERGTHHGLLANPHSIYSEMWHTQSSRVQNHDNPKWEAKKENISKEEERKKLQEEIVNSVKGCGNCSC
The experiment in a line: NP40-soluble protein abundance relative to vehicle (solubility fold change) (ratio); higher = more soluble protein in presence of GTP. On the procedure: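 Solubility proteome profiling in Jurkat crude lysate. Lysate was treated with Mg-GTP (0.1-10 mM) for 10 min at room temperature and 3 min at 37 °C, then solubilised with 0.8% NP40 and benzonase, followed by ultracentrifugation. Proteins were quantified by TMT10 LC-MS/MS; the value is the NP40-soluble abundance relative to the NP40-processed vehicle, from 3 independent experiments.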

Structures are written as SMILES. ± gives the standard deviation of the averaged measurements. Some of the results follow.

For `Nc1nc2c(ncn2[C@@H]2O[C@H](COP(=O)(O)OP(=O)(O)OP(=O)(O)O)[C@@H](O)[C@H]2O)c(=O)[nH]1` [guanosine triphosphate], the NP40-soluble protein abundance (concentration: 0.1mM) was determined as 1.09 ± 0.042; the NP40-soluble protein abundance (concentration: 0.5mM) is 1.05 ± 0.076; the NP40-soluble protein abundance (concentration: 1mM) was 0.966 ± 0.042; the NP40-soluble protein abundance (concentration: 2mM) was found to be 0.959 ± 0.042; the NP40-soluble protein abundance (concentration: 4mM) was 0.965 ± 0.096; the NP40-soluble protein abundance (concentration: 6mM) is 0.939 ± 0.056. The NP40-soluble protein abundance (concentration: 8mM) is 0.928 ± 0.037 and the NP40-soluble protein abundance (concentration: 10mM) is 0.887 ± 0.068.
